PubChem BioAssay AID588590 (National Center for Advancing Translational Sciences (NCATS), 2011)
In all, about 390,000 compounds went through this assay and about 4,000 (1%) were called active. This list was built around the results that the source calls inconclusive (neither active nor inactive); the mix of calls is not that of the screen. Calls follow the shape of the dose curve; as a rule, active = well fitted inhibition curve with a large enough effect; inconclusive = small, poorly fitted or top-dose-only effect, or another doubt; inactive = no such curve, though single readings can be large or run the other way. A potency beside an inconclusive call is a rough fit, not a confirmed value.

Chains of the proteins cited; added tags and fusions are not shown. Lines headed by an entry give the natural chain unless they say otherwise; changes in a name come on top.
UniProt Q9UNA4: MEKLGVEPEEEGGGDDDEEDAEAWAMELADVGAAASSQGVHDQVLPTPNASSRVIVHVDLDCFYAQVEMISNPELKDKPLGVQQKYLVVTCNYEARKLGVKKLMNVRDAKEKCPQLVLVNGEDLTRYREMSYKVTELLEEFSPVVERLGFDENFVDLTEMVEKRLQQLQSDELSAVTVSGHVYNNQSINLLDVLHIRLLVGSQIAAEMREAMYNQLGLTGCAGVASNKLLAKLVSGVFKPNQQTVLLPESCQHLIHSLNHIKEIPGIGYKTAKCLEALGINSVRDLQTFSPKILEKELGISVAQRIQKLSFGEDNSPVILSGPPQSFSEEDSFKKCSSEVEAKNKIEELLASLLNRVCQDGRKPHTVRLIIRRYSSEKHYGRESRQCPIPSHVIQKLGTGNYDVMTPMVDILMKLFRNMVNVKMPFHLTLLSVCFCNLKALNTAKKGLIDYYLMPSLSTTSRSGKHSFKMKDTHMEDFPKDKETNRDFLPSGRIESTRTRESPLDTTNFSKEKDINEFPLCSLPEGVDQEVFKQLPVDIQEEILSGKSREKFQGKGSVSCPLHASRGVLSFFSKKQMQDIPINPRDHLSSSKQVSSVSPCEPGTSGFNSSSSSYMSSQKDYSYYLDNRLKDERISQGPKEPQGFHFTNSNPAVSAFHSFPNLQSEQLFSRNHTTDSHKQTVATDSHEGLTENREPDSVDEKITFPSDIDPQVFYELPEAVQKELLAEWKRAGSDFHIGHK

molecular target: DNA polymerase iota (Homo sapiens) (UniProt Q9UNA4); assay: qHTS for Inhibitors of Polymerase Iota; conditions: Pol iota fluorescent replication assay, 10 min; series mostly up to 115 µM
In short: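 Fluorescent replication assay read twice, at 0 min and 10 min after adding 50 nM (final) substrate. Enzyme (10 nM) and compounds were first incubated 15 min at room temperature; enzyme-free buffer wells were negative controls.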
Potency is read from the fitted curve at half-maximal effect.

Potency, inactive:
O=C(CSc1ncccn1)N/N=C/c1ccc(OC2CSC2)cc1, Cc1ccc(S(=O)(=O)c2c(C)nn(-c3ccccc3)c2OC(=O)c2ccccc2F)cc1, O=C(Nc1ccc2c(c1)N(C1CCCC1)C(=O)c1ccccc1S2)c1ccc(F)cc1, O=C(Nc1ccc(F)cc1F)c1ccc2c(=O)n3c(nc2c1)CCCCC3, COc1ccc(C(=O)N/N=C/c2ccc(OC(=O)c3cccs3)cc2)cc1, CC(=O)c1ccc(NC(=O)C2CCC(CNS(=O)(=O)c3ccc4c(c3)CCCC(=O)N4)CC2)cc1 (configuration not stated), Cc1nc2ccc(NC(=O)[C@H](C)N3C(=O)C4CC=CCC4C3=O)cc2s1 (some centres not stated), CCOc1ccccc1NS(=O)(=O)c1cnc(N)nc1, O=C(NC1CC(=O)N(c2ccc(Cl)cc2)C1)c1ccc(S(=O)(=O)N2CCCC2)cc1 (configuration not stated), CCOc1ccc(NC(=O)CSc2nnc(-c3ccc(C)cc3)c(-c3ccc(C)cc3)n2)cc1, CCc1cccc(NCc2ccccc2-c2nnc(-c3ccccc3Cl)o2)c1, CC1(C)C(=O)Nc2ccccc2N1C(=O)COC(=O)Cc1c(F)cccc1Cl, CC1=CC(=C(c2ccc(N)cc2)c2ccc(N)cc2)C=CC1=N, O=C(CC1(O)C(=O)N(CCc2ccccc2)c2ccc(Br)cc21)c1ccccc1O (configuration not stated)

Potency, inconclusive:
O=C(N/N=C/c1ccc2cccc(OCc3ccccc3)c2n1)c1ccc(Br)cc1 22.4 µM [inhibitor, single point], CN(C)CCCNc1ncnc2c1cnn2Cc1ccccc1Cl 39.8 µM [inhibitor, single point], Cn1c(SCc2ccc(C(C)(C)C)cc2)nnc1C1COc2ccccc2O1 (configuration not stated) 7.94 µM [inhibitor, partial curve, poor fit], COC(=O)C1=C[C@@H](C(=O)OC)[C@@H]2C3=C(C(=O)[C@]2(C)NC(=O)c2ccccc2)[C@H](C)[C@@H]2C(=O)NC(=O)[C@@H]2[C@@H]3C1 89.1 µM [inhibitor, single point], COc1cc(NS(=O)(=O)c2ccc(NC(=S)NC(=O)c3sc4cc(F)ccc4c3Cl)cc2)nc(OC)n1 31.6 µM [inhibitor, partial curve, poor fit], Cc1cc2oc(=O)c(CC(=O)O)c(C)c2c2occ(C(C)(C)C)c12 50.1 µM [inhibitor, partial curve, poor fit], COc1ccc(-c2nc3ccccc3c(=O)o2)cc1OC 31.6 µM [inhibitor, single point], CCc1ccc(NC(=O)CCc2nc3sc4c(c3c(=O)[nH]2)CCCC4)cc1 20 µM [inhibitor, full curve, poor fit], Cc1ccc2c(Cl)cc(Cl)c(OCC(=O)NC(C)(C)C)c2n1 25.1 µM [inhibitor, partial curve, poor fit], CC(C)CCNC(=O)c1cc(-c2cccs2)nc2ccccc12 39.8 µM [inhibitor, partial curve, poor fit], COc1ccc(N2CC(C(=O)Nc3nnc(SCc4ccccn4)s3)CC2=O)cc1 (configuration not stated) 39.8 µM [inhibitor, single point], Cc1ccc(C)c(/C=C/C(=O)c2ccccc(=O)c2O)c1 28.2 µM [inhibitor, partial curve], O=c1c2c([nH]c3ccccc13)C(=C1CCCC1)CC2 15.8 µM [inhibitor, full curve, poor fit], C=CCNc1nnc(Cc2ccc(C(C)C)cc2)c(=O)[nH]1 44.7 µM [inhibitor, partial curve, poor fit], COCCn1c(SCC(=O)NCc2ccc3c(c2)OCO3)nnc1-c1c[nH]c2ccccc12 50.1 µM [inhibitor, partial curve, poor fit], Cc1cc(N/N=C\c2ccc(Br)cc2)nc(-n2nc(C)cc2C)n1 0.631 µM [inhibitor, full curve, poor fit], N#CNC(=Nc1cccc(F)c1)SCc1cccc(F)c1 89.1 µM [inhibitor, partial curve], Cc1ccc(-c2nnc(NC(=O)c3ccco3)o2)c(C)c1 89.1 µM [inhibitor, single point], Cc1[nH]n(-c2ccccc2)c(=O)c1-c1ccc(Cl)cc1 22.4 µM [inhibitor, partial curve, poor fit], C=CCn1c(SCc2csc(-c3ccc(Cl)cc3)n2)nnc1-c1ccccc1OC 39.8 µM [inhibitor, partial curve, poor fit], O=C(NCCc1ccccc1Cl)C1CCN(S(=O)(=O)c2cccs2)CC1 89.1 µM [inhibitor, single point], COC(=O)c1cc(C(=O)N2CCN(c3cccc(C)c3C)CC2)cc([N+](=O)[O-])c1 44.7 µM [inhibitor, partial curve, poor fit], Cc1c(C(=O)N(C)c2cccc(C(F)(F)F)c2)sc2nc3n(c(=O)c12)CCCCC3 79.4 µM [inhibitor, partial curve, poor fit], Cc1ccc(NC(=O)c2ccc3c(SCC(=O)O)c4c(nc3c2)CCCC4)c(Br)c1 89.1 µM [inhibitor, partial curve, poor fit], CCOc1ccc(CNC(=O)C2CCN(c3nnc(C)c4c(C)n(-c5ccc(C)cc5)nc34)CC2)cc1 15.8 µM [inhibitor, full curve, poor fit], CCOC(=O)CSC1=C(C#N)C(c2ccccc2)C(C(C)=O)=C(C)N1 (configuration not stated) 100 µM [inhibitor, single point], CC(C)Cn1c(CCC(=O)O)ccc1-c1cccs1 39.8 µM [inhibitor, partial curve, poor fit], O=C(NNC(=O)c1ccc(SCC2CCCO2)c([N+](=O)[O-])c1)c1ccc(Cl)c([N+](=O)[O-])c1 (configuration not stated) 50.1 µM [inhibitor, full curve], COc1ccc(CC(=O)OCC(=O)Nc2ccc3c(c2)OCO3)cc1OC 39.8 µM [inhibitor, single point], COc1cc(N)c(Cl)cc1C(=O)OCC(=O)Nc1ccc(N2CCOCC2)cc1 20 µM [inhibitor, partial curve, poor fit], CCCC[C@@H](CNC)NC[C@H](NCCCCC1CCCCC1)C(C)C 39.8 µM [inhibitor, full curve, poor fit], O=C(Cn1cc(S(=O)(=O)Cc2ccc(F)cc2)c2ccccc21)NCc1ccccc1Cl 89.1 µM [inhibitor, partial curve, poor fit], COc1ccccc1OCCCN1C(=O)C(=O)c2cccc(C)c21 44.7 µM [inhibitor, partial curve, poor fit], COCC(=O)Nc1ccc(Nc2ccccc2)cc1 39.8 µM [inhibitor, single point], COc1cc2c(cc1OC)C(c1cccc([N+](=O)[O-])c1)N(C(=O)CCC(=O)O)CC2 (configuration not stated) 3.16 µM [inhibitor, partial curve, poor fit], CCCNC(=O)c1ccc(N2CCC3(CC2)CC(c2ccccc2)=NO3)c(NC(=O)c2ccc(Br)cc2)c1 6.31 µM [inhibitor, partial curve, poor fit], O=C(O)Cn1cnc2scc(-c3cccs3)c2c1=O 25.1 µM [inhibitor, full curve, poor fit], Cc1cccc(NC(=S)NCCc2ccccn2)c1 3.16 µM [inhibitor, partial curve, poor fit], CC(C)c1ccc(C(=O)CSc2ncn[nH]2)cc1 22.4 µM [inhibitor, partial curve, poor fit], CCOc1ccc(/C=C2\SC(=S)N(CCC(=O)O)C2=O)cc1 50.1 µM [inhibitor, partial curve, poor fit], CC(/C=C1\N=C(SCc2ccccc2Cl)SC1=O)=C\c1ccccc1 39.8 µM [inhibitor, single point], CCCc1cc(=O)oc2cc(OCC(=O)NCCCN3CCOCC3)c(Cl)cc12 79.4 µM [inhibitor, single point], C#CCOCCOCCOCCNc1nc(N2CCN(C(=O)[C@H]([C@@H](C)O)n3cc(CCCCN)nn3)CC2)nc(N2CCN(C(=O)[C@H](CCCCN)n3cc(CC(C)O)nn3)CC2)n1 (some centres not stated) 17.8 µM [inhibitor, full curve, poor fit], COc1ccc(NC(=O)CSCC(=O)Nc2nnc(CC(C)C)s2)cc1 79.4 µM [inhibitor, partial curve, poor fit]

Potency, active:
O=C(/C=C/c1ccco1)Nc1ccccc1C(=O)Nc1cccc(C(=O)O)c1 20 µM, NS(=O)(=O)Nc1c(Br)cc(Br)c2cccnc12 25.1 µM, CC1CCCC(C)N1C(=O)COC(=O)c1ccc([N+](=O)[O-])o1 (configuration not stated) 50.1 µM, CCn1c(SCC(=O)N/N=C/C(C)=C\c2ccco2)nnc1-c1ccccc1 44.7 µM
